Measurements from US20170007716A1.
No constants are given. Whether binding was seen depends on the method and setting. Some results given as binding are weak or reduced against the parent protein; the word gives no strength.

Sequences of proteins named here, by UniProt entry; tags and fusion partners are left off. A change or cut given only in a name is not applied to a line headed by its entry.
UniProt Q12884: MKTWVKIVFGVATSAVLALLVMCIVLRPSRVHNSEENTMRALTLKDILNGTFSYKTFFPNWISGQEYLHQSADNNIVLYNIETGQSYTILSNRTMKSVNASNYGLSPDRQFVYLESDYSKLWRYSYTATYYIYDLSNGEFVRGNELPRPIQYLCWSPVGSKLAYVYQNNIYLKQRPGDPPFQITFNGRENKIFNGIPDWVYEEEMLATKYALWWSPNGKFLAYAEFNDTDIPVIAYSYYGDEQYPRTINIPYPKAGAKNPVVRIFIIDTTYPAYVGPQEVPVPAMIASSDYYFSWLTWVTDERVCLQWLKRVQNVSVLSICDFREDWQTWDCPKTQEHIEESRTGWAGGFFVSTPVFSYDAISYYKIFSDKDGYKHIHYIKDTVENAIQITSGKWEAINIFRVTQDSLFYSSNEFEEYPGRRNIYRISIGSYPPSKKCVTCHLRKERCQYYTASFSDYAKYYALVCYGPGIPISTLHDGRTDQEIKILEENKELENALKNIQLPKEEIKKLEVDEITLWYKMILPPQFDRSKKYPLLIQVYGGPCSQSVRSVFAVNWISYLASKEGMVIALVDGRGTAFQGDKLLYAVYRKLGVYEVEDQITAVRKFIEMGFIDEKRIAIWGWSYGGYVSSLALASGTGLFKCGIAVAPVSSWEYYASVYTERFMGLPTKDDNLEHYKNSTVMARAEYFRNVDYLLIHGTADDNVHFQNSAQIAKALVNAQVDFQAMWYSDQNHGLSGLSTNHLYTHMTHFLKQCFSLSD

Biological target: huFAP fusion protein (human) (UniProt Q12884)
Test: ELISA, huFAP fusion protein

B1: humanized anti-FAP IgG1 hu36 (hu36-IgG1) (antibody, V domains shown)
VH: QVQLVQSGAEVKKPGASVKVSCKASGYTFTENIIHWVRQAPGQGLEWMGWFHPGSGSIKYNEKFKDRVTMTADTSTSTVYMELSSLRSEDTAVYYCARHGGTGRGAMDYWGQGTLVTVSS
VL: DIQMTQSPSSLSASVGDRVTITCRASKSVSTSAYSYMHWYQQKPGKAPKLLIYLASNLESGVPSRFSGSGSGTDFTLTISSLQPEDFATYYCQHSRELPYTFGQGTKLEIKR
Q: For B1, which binding is on record?
A: Its binding is “binds”.
